For 39 compounds, cell number change and AC50 results are on record in PubChem BioAssay AID2685 (National Center for Advancing Translational Sciences (NCATS), 2010).

The experiment is described as follows: qHTS Assay for Lipid Storage Modulators in Drosophila S3 Cells.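 On cell number change: cells counted by Cell Tracker Red CMTPX staining in the red channel.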 Conditions: BODIPY lipid droplet fluorescence, 18-24 h; for cell number change: measured here: cell count max response, cells fed with added oleic acid. Summed up: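 Laser-scanning cytometry quantifies lipid droplet accumulation (500–530 nm total intensity; droplet/cell object ratio) in oleic acid-fed (400 uM added) Drosophila S3 cells treated with a concentration series. 20 uM Triacsin C defined 100% inhibition.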

The mark [1] stands for this setting: measured here: cell number channel AC50, cells fed with added oleic acid.
The mark [2] stands for this setting: measured here: lipid fluorescence (Fed channel) AC50, cells fed with added oleic acid.

SMILES strings stand for the structures. This is one part of the list. Shown are side measurements of this screen, not its main read-out; they come without a call. Compounds called inactive in the main read-out are mostly missing here. Words in brackets tell the shape of the fitted curve; partial curves, single points and poor fits give uncertain potencies.

`Cc1ccc(C2(CCNS(=O)(=O)c3ccc(C)cc3)CCOC(C(C)C)C2)cc1` (stereo unspecified): the cell number change was -20.5%. In addition, the AC50 under setting [1] is 0.00517 µM [falling, full curve, poor fit]. The AC50 under setting [2] was 5.8 µM [falling, partial curve, poor fit].

As to `CC1CCC(C(C)C)C2=C1C(C#N)(C#N)C(C#N)(C#N)C(c1ccccc1)N2` (stereo unspecified), the cell number change is -15.2%.

Regarding `COc1ccc(NC(=O)c2ccc3c(SCC(=O)O)c4c(nc3c2)CCCC4)cc1Cl`, the AC50 under setting [2] was 0.366 µM [falling, full curve, poor fit].

On to `O=C(CSc1ccccn1)c1ccc2c(c1)OCO2`, for which the AC50 was 0.731 µM [rising, partial curve] under setting [1] and 0.651 µM [rising, partial curve] under setting [2].

Consider `CN=c1scc(-c2cccs2)n1/N=C/c1ccccc1O`, for which the cell number change was -1.71%. The AC50 under setting [2] is 2.06 µM [rising, partial curve].

As for `CN(CC(=O)Nc1ccc(F)cc1)C(=O)COc1ccc(C(=O)c2ccccc2)cc1`, the cell number change is 15%. Moreover, the half-maximal activity concentration (AC50) under setting [2] was 10.3 µM [rising, partial curve, poor fit].

Regarding `CCNc1nc(SCC(=O)Nc2ccccc2)nc(N2CCOCC2)n1`, the cell number change amounted to 5.04%. Also, the AC50 under setting [2] is 18.4 µM [rising, single point].

As for `Cc1ccc2c(c1)N(CC(=O)N1CCCCCC1)C(=O)c1cccnc1O2`, the cell number change is -0.298%.

As to `CC(=O)NC(CC(=O)OCC(=O)N1CCN(S(=O)(=O)c2ccc(Cl)cc2)CC1)c1ccccc1` (stereo unspecified), the cell number change is -14.8%. Further, under setting [1], the AC50 is 6.51 µM [falling, single point].

Regarding `CC(NC(=O)C1CCCCC1)C(=O)NC1=NCCS1` (stereo unspecified), under setting [2], the AC50 was 29.1 µM [falling, single point].

Consider `C=CCn1c(COc2cccc(C)c2)nnc1SCn1nnc2ccccc2c1=O`, for which the AC50 under setting [1] was 0.13 µM [rising, full curve, poor fit].

With `Cc1ccccc1C(=O)NC(=S)N(C)CCc1ccccn1`, the cell number change came out at 58.5%. Moreover, under setting [1], the AC50 is 0.731 µM [rising, full curve, poor fit].

On to `Cc1cccc(NC(=O)CCC2CCN(Cc3nccs3)CC2)c1`, for which the cell number change was determined as 35.1%. For the same compound, the AC50 under setting [1] is 29.1 µM [rising, single point].

Consider `CCCNC(=S)N1CCN(CC)CC1`, for which the cell number change is 13.8%. The AC50 under setting [1] was 0.116 µM [falling, full curve, poor fit]. Moreover, the AC50 under setting [2] was 0.0731 µM [falling, single point].

On to `O=c1c2ccccc2ncn1Cc1ccc(Cl)cc1`, for which the cell number change was -16%.

For the compound `CC(=O)c1ccc(NC(=O)COC(=O)C2C3CC4OC(=O)C2C4C3)cc1` (stereo unspecified), the cell number change came to 9.91%. Also, the AC50 under setting [2] is 29.1 µM [falling, single point].

Consider `C[C@@H](C(=O)N[C@@H](Cc1ccccc1)C(=O)O)n1nnc2ccccc2c1=O`, for which the cell number change is -37.7%. In addition, the AC50 under setting [1] was 18.4 µM [falling, single point]. The AC50 under setting [2] is 18.4 µM [falling, single point].

`CCN(CC)S(=O)(=O)c1ccc(N2CCOCC2)c(NC(=O)c2cc3ccccc3oc2=O)c1`: the cell number change was determined as 23.5%.

As to `COC(=O)c1ccccc1NC(=S)N(Cc1ccc2c(c1)OCO2)Cc1cc2ccc(OC)cc2[nH]c1=O`, the cell number change was -6.42%. The AC50 under setting [1] was 1.46 µM [falling, partial curve, poor fit]. Under setting [2], the AC50 is 0.461 µM [rising, partial curve].

Take `Cc1cccc(C)c1NC(=O)CSCC(=O)c1ccc(O)c(O)c1`: the cell number change turned out to be 3.14%. Further, the AC50 under setting [2] is 23.1 µM [falling, single point].

Take `O=C(C1CC(=O)N(c2ccc3c(c2)OCCO3)C1)N1CCN(Cc2ccccc2F)CC1` (stereo unspecified): the cell number change came to 34.3%. For the same compound, the AC50 under setting [1] is 10.3 µM [rising, partial curve, poor fit]. Besides, the AC50 under setting [2] was 1.64 µM [falling, full curve].

`Cc1cc(C(=O)N/N=C/c2ccc[nH]2)no1`: the cell number change worked out at 13.2%.

On to `CC1(C)S[C@@H]2[C@H](NC(=O)[C@H](N)c3ccccc3)C(=O)N2[C@H]1C(=O)OC1OC(=O)c2ccccc21` (stereo partly specified), for which the cell number change was -16%. Under setting [1], the AC50 is 1.3 µM [falling, full curve]. The AC50 under setting [2] was 1.3 µM [falling, full curve].

Consider `O=C(c1cc(S(=O)(=O)NCc2ccco2)ccc1Br)N1CCOCC1`, for which the cell number change was -3.18%. For the same compound, the AC50 under setting [2] was 16.4 µM [rising, single point].

On to `COc1ccc(C)cc1S(=O)(=O)NC(C)C(=O)NC1CC1` (stereo unspecified), for which the cell number change stood at 3.47%.

For the compound `CCCCN(C(=O)c1ccc(C)o1)c1c(N)n(CC(C)C)c(=O)[nH]c1=O`, the cell number change was -42.8%. Moreover, the AC50 under setting [1] is 13 µM [falling, partial curve]. Moreover, under setting [2], the AC50 is 0.092 µM [rising, full curve, poor fit].

In the case of `CCOc1cc([N+](=O)[O-])cc(/C=N/NC(=O)c2c(-c3ccccc3)noc2C)c1O`, the cell number change worked out at 15.3%.

Regarding `CC1CCN(C(c2ccc(N(C)C)cc2)c2nnnn2Cc2ccccc2)CC1` (stereo unspecified), the cell number change is -0.237%. Moreover, the AC50 under setting [2] was 6.51 µM [falling, single point].

For `COc1ccc(NS(=O)(=O)c2ccc(SC)cc2)c(OC)c1`, the cell number change was -3.1%.

`CN(C)S(=O)(=O)c1ccc(NC(=O)CN2CCCc3ccccc32)cc1`: the cell number change was 26.1%. Besides, the AC50 under setting [2] is 0.164 µM [falling, full curve, poor fit].

For `S=c1nc(-c2ccccc2)n(CCCn2ccnc2)c2c1CCCC2`, the AC50 under setting [2] is 0.58 µM [falling, single point].

Regarding `COc1ccccc1CCNC(=O)c1ccoc1C`, the cell number change was determined as 157%. In addition, under setting [1], the AC50 is 16.4 µM [rising, partial curve].

Turning to `CN(C)C(=O)c1cn(-c2ccccc2)nc1-c1cc2ccccc2oc1=O`, the cell number change stood at 49.9%. For the same compound, the AC50 under setting [1] is 29.1 µM [rising, single point].

For `O=C(c1ccccc1)c1ccc(NCCCn2ccnc2)c([N+](=O)[O-])c1`, the cell number change was -21.1%. The AC50 under setting [2] was 29.1 µM [falling, single point].

Take `COc1ccc(C(=O)c2nc3c(n2O)CCCCC3)cc1`: the cell number change is 0.0663%. Moreover, the AC50 under setting [2] was 0.13 µM [falling, full curve, poor fit].

For `CCc1[nH]nc2c1C1(CCN(C(=O)OCc3ccccc3)CC1)C(C#N)=C(N)O2`, the cell number change is -36.6%. In addition, under setting [1], the AC50 was 25.9 µM [falling, single point].

With `O=C(NC1CCCc2ccccc21)c1cccc(S(=O)(=O)N2CCOCC2)c1` (stereo unspecified), the cell number change was determined as 18.3%.

With `CN1C(=O)c2ccc(NC(=O)CSc3ccccc3)cc2C1=O`, the cell number change is 14.9%.

`COC(=O)CCCC(=O)N1CCC(CO)(CCc2ccccc2)CC1`: the cell number change was -13%. Besides, under setting [1], the AC50 was 0.00517 µM [falling, full curve, poor fit].
